The list shows a part of the results.
What was measured:
Test in all cases: glycan array binding signal (z-score within array); higher = stronger binding
Conditions in all cases: glycan notation: IUPAC condensed, linker removed
[1] = biological target: Gal(b1-3)GlcNAc(b1-2)Man(a1-3)[Gal(b1-3)GlcNAc(b1-2)Man(a1-6)]Man(b1-4)GlcNAc(b1-4)GlcNAc
How it was run: (§1)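 Negative Z-scores can be read as non-binding. The Z-score is calculated within each array and then averaged across arrays of one protein sequence at different concentrations or buffers and across linkers. Arrays, 3228 in all, were curated from the Consortium for Functional Glycomics database and kept only where the protein sequence was available.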

[2] = biological target: Gal(b1-3)GlcNAc(b1-2)Man(a1-3)[Gal(b1-3)GlcNAc(b1-2)Man(a1-6)]Man(b1-4)GlcNAc(b1-4)[Fuc(a1-6)]GlcNAc
How it was run: as §1

[3] = biological target: Gal(b1-3)GlcNAc(b1-2)Man(a1-3)[GlcNAc(b1-4)][Gal(b1-3)GlcNAc(b1-2)Man(a1-6)]Man(b1-4)GlcNAc(b1-4)GlcNAc
How it was run: as §1

[4] = biological target: Gal(b1-3)GlcNAc(b1-2)[Gal(b1-3)GlcNAc(b1-6)]Man(a1-6)[Gal(b1-3)GlcNAc(b1-2)Man(a1-3)]Man(b1-4)GlcNAc(b1-4)GlcNAc
How it was run: as §1

[5] = biological target: Gal(b1-3)GlcNAc(b1-3)Gal(b1-3)GlcNAc
How it was run: as §1

[6] = biological target: Gal(b1-3)GlcNAc(b1-3)Gal(b1-4)Glc
How it was run: as §1

[7] = biological target: Gal(b1-3)GlcNAc(b1-3)Gal(b1-4)GlcNAc
How it was run: as §1

[8] = biological target: Gal(b1-3)GlcNAc(b1-3)Gal(b1-4)GlcNAc(b1-2)Man(a1-3)[Gal(b1-3)GlcNAc(b1-3)Gal(b1-4)GlcNAc(b1-2)Man(a1-6)]Man(b1-4)GlcNAc(b1-4)GlcNAc
How it was run: as §1

[9] = biological target: Gal(b1-3)GlcNAc(b1-3)Gal(b1-4)GlcNAc(b1-2)[Gal(b1-3)GlcNAc(b1-3)Gal(b1-4)GlcNAc(b1-6)]Man(a1-6)[Gal(b1-3)GlcNAc(b1-3)Gal(b1-4)GlcNAc(b1-2)Man(a1-3)]Man(b1-4)GlcNAc(b1-4)[Fuc(a1-6)]GlcNAc
How it was run: as §1

[10] = biological target: Gal(b1-3)GlcNAc(b1-3)Gal(b1-4)GlcNAc(b1-3)Gal(b1-4)GlcNAc(b1-2)[Gal(b1-3)GlcNAc(b1-3)Gal(b1-4)GlcNAc(b1-3)Gal(b1-4)GlcNAc(b1-6)]Man(a1-6)[Gal(b1-3)GlcNAc(b1-3)Gal(b1-4)GlcNAc(b1-3)Gal(b1-4)GlcNAc(b1-2)Man(a1-3)]Man(b1-4)GlcNAc(b1-4)[Fuc(a1-6)]GlcNAc
How it was run: as §1

[11] = biological target: Gal(b1-3)GlcNAc(b1-3)Gal(b1-4)GlcNAc(b1-6)[Gal(b1-3)GlcNAc(b1-3)]Gal(b1-4)Glc
How it was run: as §1

[12] = biological target: Gal(b1-3)GlcNAc(b1-3)Gal(b1-4)[Fuc(a1-3)]GlcNAc
How it was run: as §1

[13] = biological target: Gal(b1-3)GlcNAc(b1-3)Gal(b1-4)[Fuc(a1-3)]GlcNAc(b1-6)[Gal(b1-3)GlcNAc(b1-3)]Gal(b1-4)Glc
How it was run: as §1

[14] = biological target: Gal(b1-3)GlcNAc(b1-3)GalNAc
How it was run: as §1

[15] = biological target: Gal(b1-3)GlcNAc(b1-6)Gal(b1-4)GlcNAc
How it was run: as §1

[16] = biological target: Gal(b1-3)GlcNAc(b1-6)GalNAc
How it was run: as §1

[17] = biological target: Gal(b1-3)GlcNAc(b1-6)[Gal(b1-3)]GalNAc
How it was run: as §1

Gal(b1-3)GlcNAc6S = biological target: Gal(b1-3)GlcNAc6S
How it was run: as §1

[18] = biological target: Gal(b1-3)[Fuc(a1-4)]GlcNAc
How it was run: as §1

[19] = biological target: Gal(b1-3)[Fuc(a1-4)]GlcNAc(b1-2)Man
How it was run: as §1

[20] = biological target: Gal(b1-3)[Fuc(a1-4)]GlcNAc(b1-2)Man(a1-3)[Gal(b1-3)[Fuc(a1-4)]GlcNAc(b1-2)Man(a1-6)]Man(b1-4)GlcNAc(b1-4)[Fuc(a1-6)]GlcNAc
How it was run: as §1

[21] = biological target: Gal(b1-3)[Fuc(a1-4)]GlcNAc(b1-3)Gal(b1-3)[Fuc(a1-4)]GlcNAc
How it was run: as §1

[22] = biological target: Gal(b1-3)[Fuc(a1-4)]GlcNAc(b1-3)Gal(b1-4)[Fuc(a1-3)]GlcNAc
How it was run: as §1

[23] = biological target: Gal(b1-3)[Fuc(a1-4)]GlcNAc(b1-6)GalNAc
How it was run: as §1

[24] = biological target: Gal(b1-3)[GlcNAc(b1-6)]GalNAc
How it was run: as §1

[25] = biological target: Gal(b1-3)[Neu5Ac(a2-6)]GalNAc
How it was run: as §1

[26] = biological target: Gal(b1-3)[Neu5Ac(a2-6)]GlcNAc(b1-4)Gal(b1-4)Glc
How it was run: as §1

[27] = biological target: Gal(b1-3)[Neu5Ac(b2-6)]GalNAc
How it was run: as §1

Gal(b1-4)Gal = biological target: Gal(b1-4)Gal
How it was run: as §1

[28] = biological target: Gal(b1-4)GalNAc(a1-3)[Fuc(a1-2)]Gal(b1-4)GlcNAc
How it was run: as §1

[29] = biological target: Gal(b1-4)GalNAc(b1-3)[Fuc(a1-2)]Gal(b1-4)GlcNAc
How it was run: as §1

Gal(b1-4)Glc = biological target: Gal(b1-4)Glc
How it was run: as §1

Gal(b1-4)Glc6S = biological target: Gal(b1-4)Glc6S
How it was run: as §1

Gal(b1-4)GlcNAc = biological target: Gal(b1-4)GlcNAc
How it was run: as §1

[30] = biological target: Gal(b1-4)GlcNAc(a1-6)Gal(b1-4)GlcNAc
How it was run: as §1

Gal(b1-4)GlcNAc(b1-2)Man = biological target: Gal(b1-4)GlcNAc(b1-2)Man
How it was run: as §1

[31] = biological target: Gal(b1-4)GlcNAc(b1-2)Man(a1-3)Man(b1-4)GlcNAc(b1-4)GlcNAc
How it was run: as §1

B1: Epa11 (Candida glabrata) (protein)
chain: MGSSHHHHHHSSGLVPRGSHMASSNAPNYPVGCSPSVGTQLTPGLSLEVYAYPMDGNNGYCWNATYKDPEFPRSGYLKNKLLGKADGVVGPLNFLAKNKDCSPKVDTLPAGFNFPQPITVTNFTMVLFGYLAPKQSGKYTFKLLADDLLLLNLGATNAFDCCNREATKNNLGEFLAYNLWPNQDKNVTVYLEKGVYYPLRLFFNNRDGGSQLDFSYYFNDSPAPLTDFSGMFFSVPDGAECPARI
- glycan array binding signal (z-score) [1]: -0.179
- glycan array binding signal (z-score) [2]: -0.006
- glycan array binding signal (z-score) [3]: -0.064
- glycan array binding signal (z-score) [4]: -0.365
- glycan array binding signal (z-score) [5]: -0.623
- glycan array binding signal (z-score) [6]: -0.214
- glycan array binding signal (z-score) [7]: -0.623
- glycan array binding signal (z-score) [8]: -0.34
- glycan array binding signal (z-score) [9]: 0.613
- glycan array binding signal (z-score) [10]: 0.496
- glycan array binding signal (z-score) [11]: 0.112
- glycan array binding signal (z-score) [12]: 0.446
- glycan array binding signal (z-score) [13]: -0.626
- glycan array binding signal (z-score) [14]: -0.639
- glycan array binding signal (z-score) [15]: -0.407
- glycan array binding signal (z-score) [16]: 0.7
- glycan array binding signal (z-score) [17]: 0.063
- glycan array binding signal (z-score) (Gal(b1-3)GlcNAc6S): -0.031
- glycan array binding signal (z-score) [18]: -0.343
- glycan array binding signal (z-score) [19]: -0.104
- glycan array binding signal (z-score) [20]: 0.265
- glycan array binding signal (z-score) [21]: 2.35
- glycan array binding signal (z-score) [22]: -0.583
- glycan array binding signal (z-score) [23]: 0.96
- glycan array binding signal (z-score) [24]: -0.281
- glycan array binding signal (z-score) [25]: 0.753
- glycan array binding signal (z-score) [26]: 0.3
- glycan array binding signal (z-score) [27]: 1.68
- glycan array binding signal (z-score) (Gal(b1-4)Gal): -0.517
- glycan array binding signal (z-score) [28]: -0.453
- glycan array binding signal (z-score) [29]: -0.449
- glycan array binding signal (z-score) (Gal(b1-4)Glc): -0.879
- glycan array binding signal (z-score) (Gal(b1-4)Glc6S): -0.188
- glycan array binding signal (z-score) (Gal(b1-4)GlcNAc): -0.896
- glycan array binding signal (z-score) [30]: -0.486
- glycan array binding signal (z-score) (Gal(b1-4)GlcNAc(b1-2)Man): -0.157
- glycan array binding signal (z-score) [31]: -0.372

Reference: the supplement of paper PMC8728848
